Consider 8 compounds from patent publication US20090088340A1, “METHODS FOR PREDICTING THE REDUCTION/OXIDATION (REDOX) REACTION ACTIVITY OF METAL COMPLEXES” (WESTERN CAROLINA UNIVERSITY, priority 2007, published 2009).

A short description of this data set: Metal/fluoride association from F^− 19F NMR transverse relaxation enhancement (CPMG). The format is physicochemical. As to conditions: for effect on T2 relaxation of the F^− 19F resonance: aqueous solutions, as a function of temperature. From the text:
CPMG is the standard technique for measuring transverse NMR relaxation times (T2). See, for example, Braun et al., “150 and More Basic NMR Experiments,” Wiley-VCH Weinheim, 1998, page 159.
Rate constants for metal/probe association reactions can be related directly to the effects of the metal complex on the NMR relaxation rates of probe nuclei.
R2,obs−R2,dia=kapp,F−[M] (6)
where R2,dia is the relaxation rate in diamagnetic solution and kapp,F− is the apparent second order rate constant for metal/F^− association. The effects of eleven paramagnetic metal complexes, Fe^IIIEDTA(H2O)^−, Fe^IIIEDTA(OH)^2−, Fe^IIIPDTA^−, Fe^IIIDTPA^2−, Fe^III2O(TTHA)^2−, Fe^III(CN)6^3−, Mn^IIEDTA(H2O)^2−, Mn^IIPDTA^2−, Mn^IIβ-EDDADP^2−, Mn^IIPO4^−, and Cu/Zn SOD on F^− ion ^19F NMR transverse relaxation rates (R2=1/T2) were studied in aqueous solutions as a function of temperature.
Without being bound to any one theory, the curvature of the plot can arise from a similarity in the magnitudes of outer-sphere and inner-sphere contributions to relaxation (R2,OS and R2,IS). See Dwek, R. A., Nuclear Magnetic Resonance in Biochemistry, Clarendon, Oxford, 1973. […] See Dwek, R. A., Nuclear Magnetic Resonance in Biochemistry, Clarendon, Oxford, 1973. To estimate the contribution of R2,OS, relaxation enhancement of the ^19F resonance of the trifluoroacetate anion (tfa) by Fe^IIIDTPA^2− was measured. R2,IS for the tfa resonance should be negligible due to the low basicity of the anion and the absence of a through bond pathway for magnetic interaction between the paramagnetic center and the ^19F nuclei. For the tfa resonance, R2,obs decreased with increasing temperature consistent with an outer-sphere interaction.
where α, β, and γ are constants. The γ term for F^− relaxation in Equation 7 was set equal to the slope of the least squares line for the tfa data, and ΔH^‡, α, and β were refined to give the curved trend line following the F^− data in FIG. 6. Dashed lines (a) and (b) in FIG. 6 represent the predicted outer-sphere and inner-sphere contributions to the relaxation rate, respectively. The 25° C. association rate constant and activation enthalpy in Table 1 (and used in FIG. 2) are from this refinement.

Take `O.O=C([O-])CN(CCN(CC(=O)[O-])CC(=O)[O-])CC(=O)[O-].[Mn+2]` [Mn^IIEDTA(H2O)^2−]: the “effect on T2 relaxation of the F^− 19F resonance” value (from here on “effect on T2 relaxation”) was “measurably enhanced”.
With `O=C([O-])CN(CCN(CC(=O)[O-])CC(=O)[O-])CC(=O)[O-].[Fe+3].[OH-]` [Fe^IIIEDTA(OH)^2−], the “effect on T2 relaxation” value was “no measured effect”. In addition, the “reactivity of HF and F^− toward the complex” value (trend line of FIG. 8, pH 4.0 to 9.2) is recorded as “unreactive”.
`O.O=C([O-])CN(CCN(CC(=O)[O-])CC(=O)[O-])CC(=O)[O-].[Fe+3]` [Fe^IIIEDTA(H2O)^−, iron (III) ethylenediamine-N,N,N″,N″-tetraacetic acid hydrate]: the “effect on T2 relaxation” value is recorded as “measurably enhanced”.
On to `O=C([O-])CN(CCN(CC(=O)[O-])CC(=O)[O-])CCN(CC(=O)[O-])CC(=O)[O-].[Fe+3]` [Fe^IIIDTPA^2−, iron (III) diethylenetriaminepentaacetate], for which the “Arrhenius temperature dependence of F^− 19F relaxation enhancement” value is listed as “did not display Arrhenius temperature dependence” and the “effect on T2 relaxation” value is recorded as “measurably enhanced”.
In the case of `O=C([O-])CN(CCN(CCN(CC(=O)[O-])CC(=O)[O-])CC(=O)[O-])CCN(CC(=O)[O-])CC(=O)[O-].[Fe+3].[Fe+3].[O-2]` [Fe^III2O(TTHA)^2−], the “effect on T2 relaxation” value is recorded as “measurably enhanced”.
In the case of `O=C([O-])CCN(CCN(CCC(=O)[O-])CC(=O)[O-])CC(=O)[O-].[Mn+2]` [Mn^IIβ-EDDADP^2−], the “effect on T2 relaxation” value was “measurably enhanced”.
Take `O=P([O-])([O-])[O-].[Mn+2]` [Mn^IIPO4 ^−]: the “effect on T2 relaxation” value is reported as “measurably enhanced”.
For “Cu/Zn SOD: copper (Cu)/zinc (Zn) superoxide dismutase enzyme”, the “effect on T2 relaxation” value is reported as “measurably enhanced”.
